The series addresses T1, Redβ (single-strand annealing protein) (UniProt P03698).
T1 sequence (looked up, limits assumed): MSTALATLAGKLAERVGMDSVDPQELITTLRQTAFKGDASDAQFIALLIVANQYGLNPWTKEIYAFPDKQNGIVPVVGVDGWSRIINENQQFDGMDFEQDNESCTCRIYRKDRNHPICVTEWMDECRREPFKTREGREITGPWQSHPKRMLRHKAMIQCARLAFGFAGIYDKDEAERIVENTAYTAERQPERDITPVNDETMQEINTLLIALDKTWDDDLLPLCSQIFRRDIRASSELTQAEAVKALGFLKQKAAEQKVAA
Put plainly: SEC, agarose gel and AFM. As to conditions: large networks that do not enter the gel; B1 buffer: 50 mM Tris-HCl pH 8.0, 150 mM NaCl, 1 mM MgCl2, 25 °C (sticky-end assemblies); 44mer coating and annealing at 37 °C; SEC in 100 mM Tris-HCl pH 8.0; recombinant protein; protein details: Strep-tag II; folded or branched DNA. In general terms: Size exclusion chromatography separates by hydrodynamic size, large species first.

Construct, isoform or probe ends are uncertain for at least one entry. At least one verdict rests on a figure or table, not on a statement of the authors. Tags and fusion partners may be left off the protein sequences shown.

As to “CCAATACGTGCTCGCCGTCCAGCGACTCTTAATTGCGTTGGTGTTTTTGAGTGAGTCTCTAACCCG / CGCCAGTCGTCTATGGCGCTGACGGGTTAGAGACTCACTCAAAAAGGCGATGGTGAGCATGTCTGG / CTGGACGGCGAGCACGTATTGGCCAGACATGCTCACCATCGCCTATCATAAGCGCACCCGCTGCCC / TCAGCGCCATAGACGACTGGCGGGGCAGCGGGTGCGCTTATGATACACCAACGCAATTAAGAGTCG”, the binding result was “binds”.

(Values after paper PMC7663122, “Protein-Assisted Room-Temperature Assembly of Rigid, Immobile Holliday Junctions and Hierarchical DNA Nanostructures”.)
